Measurements taken from patent US20260234566A1, “CELL LINES FOR EXPRESSION OF LHCG RECEPTOR” (Ares Trading S.A., priority 2023, published 2026).
At least one compound was matched to its structure with a doubt left.

Legend:
adenylate cyclase (AC) [1] = experiment: Reporter Gene Assay with forskolin stimulation, HEK 293-T WT; format: cell-based, human; conditions: HEK 293-T without transfection (WT)
Protocol: (§1) Second transfection efficiency evaluation. In order to assess the second transfection efficiency, a Reporter Gene Assay (RGA) was performed. […] HEK 293-T LHCGR Luciferase cells were stimulated with forskolin. As described in literature, forskolin is a diterpene able to activate the adenylate cyclase (AC) allowing the increasing of intracellular cAMP in a wide variety of cell types. Exploiting forskolin ability, the RGA assay enables the evaluation of Reporter Gene Transcription in response to cAMP accumulation without involving the LHCG receptor. The luminescence emitted after Reporter Gene Transcription, was quantified using reagents available on the market. HEK 293-T LHCGR Luciferase and HEK 293-T without transfection were seeded in a 96 well plate and stimulated with different concentration of forskolin. After incubation, the ONE-Glo EX Luciferase assay system (Promega, E8120) was added in each well and, after 10 minutes shaking, results were acquired using the plate reader.

adenylate cyclase (AC) [2] = experiment: Reporter Gene Assay with forskolin stimulation, HEK 293-T LHCGR Luciferase; format: cell-based, human
Protocol: as §1, with “reader. Second transfection stability. HEK 293-T LHCGR Luciferase were stimulated with forskolin 4 μM or left unstimulated. Results were reported as a fold change of treated cells over unstimulated control. All % CVs were calculated among fold changes obtained for the three banks and resulted below 25%. The mean and the SD of the 3 banks were calculated and used to generate the graphs in FIG. 4B.” for “reader.”

In the case of `C=C[C@@]1(C)CC(=O)[C@]2(O)[C@@]3(C)[C@@H](O)CCC(C)(C)[C@@H]3[C@H](O)[C@H](OC(C)=O)[C@@]2(C)O1` [Forskolin, forskolin], the “luminescence response to forskolin stimulation” value (adenylate cyclase (AC) [1]) is reported as “didn't produce a luminescence response” and the “luminescence response to forskolin stimulation” value (adenylate cyclase (AC) [2]) is reported as “dose-related”.
